Data from publication PMC12670160, “A drug-repurposing screen of FDA- and EMA-approved drugs identifies two NF-κB inhibitors active against eumycetoma” (Journal of Antimicrobial Chemotherapy, 2025).
Where a name gives a salt, the structure may show the parent alone. Screen size: about 5,300 compounds; about 130 (2.5%) showed an effect of 50% or more. This is one part of the list. Peptide text beside a SMILES is read from it.

test system: M. mycetomatis strain mm55; conditions: primary screen, metabolic activity vs growth control; 96 h, 2 µM; inhibitor

| Structure (SMILES) | % viability [%] |
| --- | --- |
| CNc1cc2c(Nc3cccc(Br)c3)ncnc2cn1 [ONC0003138, pd158780] | 68.72 |
| CCCCCCCCCCCCCCCCCCOC[C@H](COP(=O)(O)OCC[N+](C)(C)C)OC [ONC0005596, 1ooctadecyl2omethylsnglycero3phosphorylcholine] | 69.87 |
| CC(Oc1ccc(O)cc1)(P(=O)(O)O)P(=O)(O)O [ONC0003523, l690330] | 126.5 |
| CO[C@H]1/C=C/O[C@@]2(C)Oc3c(C)c(O)c4c(O)c(c(/C=N/N5CCN(C)CC5)c(O)c4c3C2=O)NC(=O)/C(C)=C\C=C\[C@H](C)[C@H](O)[C@@H](C)[C@@H](O)[C@@H](C)[C@H](OC(C)=O)[C@@H]1C [ONC0003357, rifampin] | 107.5 |
| O=C(NCc1ccc(OC(F)(F)F)cc1)C1c2ccccc2C(=O)N1C1CCOCC1 (stereo not drawn) [ONC0000046, nav26] | 135.4 |
| C/C(=C\c1csc(C)n1)[C@H]1C[C@@H]2O[C@]2(C)CCC[C@H](C)[C@H](O)[C@@H](C)C(=O)C(C)(C)[C@H](O)CC(=O)O1 [ONC0004615, patupilone epo906 epothilone b] | 75.3 |
| Cc1c(Cl)cccc1Nc1ccccc1C(=O)O [ONC0000617, tolfenamic acid] | 109.8 |
| CC(C)C[C@@H](N)C(=O)N[C@H]1C(=O)N[C@@H](CC(N)=O)C(=O)N[C@H]2C(=O)N[C@H]3C(=O)N[C@H](C(=O)N[C@H](C(=O)O)c4cc(O)cc(O)c4-c4cc3ccc4O)[C@H](O)c3ccc(c(Cl)c3)Oc3cc2cc(c3O[C@@H]2O[C@H](CO)[C@@H](O)[C@H](O)[C@H]2O[C@H]2C[C@](C)(N)[C@H](O)[C@H](C)O2)Oc2ccc(cc2Cl)[C@H]1O [ONC0002123, norvancomycin hydrochloride] | 86.02 |
| C[C@@H]1CC[C@H]2C(C)(C)[C@H]3C[C@@]12CC[C@@]3(C)O [ONC0005418, cedrol] | 83.67 |
| O=C(CCCCCCC(=O)Nc1cccnc1)NO [ONC0003837, pyroxamide] | 69.09 |
| O=C(O)c1ccccc1-c1c2cc(I)c(=O)c(I)c-2oc2c(I)c(O)c(I)cc12 [ONC0004049, erythrosine sodium] | 105.2 |
| CCc1ccc(CCOc2ccc(CC3SC(=O)NC3=O)cc2)nc1 (stereo not drawn) [ONC0004237, pioglitazone hydrochloride] | 114.2 |
| C=Cc1c(C)c2cc3nc(c(CC(=O)O)c4[nH]c(cc5nc(cc1[nH]2)C(C)=C5CC)c(C)c4C(=O)O)C(CCC(=O)O)C3C (stereo not drawn) [ONC0000409, chlorophyllin chlorin e6] | 49.9 |
| CC(C)(C)c1ccc(/C=C/C(=O)Nc2ccc3c(c2)OCCO3)cc1 [ONC0001384, amg9810] | 126.8 |
| CC(C)Nc1cc(-c2c[nH]c(C(=O)N[C@H](CO)c3cccc(Cl)c3)c2)c(Cl)cn1 [ONC0001826, ulixertinib] | 83.56 |
| Cc1ccc(N(CC2=NCCN2)c2cccc(O)c2)cc1 [ONC0000668, phentolamine hydrochloride] | 93.19 |
| CN1[C@@H]2C[C@@H](O)C[C@H]1[C@@H]1O[C@@H]12 [ONC0002813, scopine] | 95.17 |
| C[C@H](N)C(=O)N[C@@H](CCC(N)=O)C(=O)O [ONC0002785, lalaninelglutamine] (H-Ala-Gln-OH) | 109.9 |
| Cc1[nH]c2ccc(Cl)cc2c1C1=CCNCC1 [ONC0001351, emd386088] | 76.74 |

| Structure (SMILES) | % viability [%] |
| --- | --- |
| O=C(O)CCc1nc(-c2ccccc2)c(-c2ccccc2)o1 [ONC0003879, oxaprozin] | 79.71 |
| Cc1ncc([N+](=O)[O-])n1CC(O)CN1CCOCC1 (stereo not drawn) [ONC0001844, morinidazole] | 126.6 |
| Cc1cc(SCc2sc(-c3ccc(C(F)(F)F)c(F)c3)nc2C)ccc1OCC(=O)O [ONC0001755, gw0742] | 61.33 |
| Clc1ccc2c(c1)C(N1CCNCC1)=Nc1ccccc1O2 [ONC0005509, amoxapine] | 96.28 |
| O=C(Cn1ccnc1[N+](=O)[O-])NCc1ccccc1 [ONC0002112, benznidazole] | 62.1 |
| O=C1c2ccccc2C(=O)C1c1ccccc1 [ONC0000611, phenindione] | 117.3 |
| CC(C)[C@@H](C)/C=C/[C@@H](C)[C@H]1CC[C@H]2C3=CC=C4C[C@@H](O)CC[C@]4(C)[C@H]3CC[C@]12C [ONC0004611, ergosterol] | 60.59 |
| CCc1nn(CCO)c(CC)c1Oc1cc(C#N)cc(C#N)c1 [ONC0001814, lersivirine] | 93.65 |
| O=C(O)CCCc1c[nH]c2ccccc12 [ONC0004667, 3indolebutyric acid iba] | 131.4 |
| CC(C)(Oc1ccc(CCNC(=O)c2ccc(Cl)cc2)cc1)C(=O)O [ONC0004140, bezafibrate] | 94.73 |
| OCCN1CCN(CCCN2c3ccccc3Sc3ccc(C(F)(F)F)cc32)CC1 [ONC0003193, fluphenazine hydrochloride] | 105.7 |
| c1ccc(CC2=NCCN2)cc1 [ONC0000573, tolazoline hydrochloride] | 87.14 |
| COc1ccc(Cl)cc1C(=O)NCCc1ccc(C(=O)O)cc1 [ONC0002353, meglitinide] | 70.11 |
| COc1cccc(-c2c(C)n(Cc3c(F)cccc3C(F)(F)F)c(=O)n(C[C@H](NCCCC(=O)O)c3ccccc3)c2=O)c1F [ONC0005554, elagolix] | 166.7 |
| CC(=O)c1ccc2c(c1)C(=O)C1(CC1)O2 [ONC0002136, spizofurone] | 69.8 |
| CC1=C(/C=C/C(C)=C/C=C/C(C)=C/C=C/C=C(C)/C=C/C=C(C)/C=C/C2=C(C)CCCC2(C)C)C(C)(C)CCC1 [ONC0002105, carotene] | 58.75 |
| CCCCCCCC/C=C\CCCCCCCC(=O)OC(CO)CO [ONC0005333, 2oleoylglycerol] | 121.8 |
| CC[C@H]1OC(=O)[C@H](C)[C@@H](O[C@H]2C[C@@](C)(OC)[C@@H](O)[C@H](C)O2)[C@H](C)[C@@H](O[C@@H]2O[C@H](C)C[C@H](N(C)C)[C@H]2O)[C@](C)(O)C[C@@H](C)C(=O)[C@H](C)[C@@H](O)[C@]1(C)O [ONC0000718, erythromycin] | 71.17 |
| O=C(O)CCc1c(C(=O)O)[nH]c2cc(Cl)cc(Cl)c12 [ONC0001050, mdl29951] | 70.31 |

| Structure (SMILES) | % viability [%] |
| --- | --- |
| CC(C(=O)O)c1ccc(CC2CCCC2=O)cc1 (stereo not drawn) [ONC0002427, loxoprofen] | 99 |
| O=C(NOCC1CC1)c1ccc(F)c(F)c1Nc1ccc(I)cc1Cl [ONC0004752, ci1040 pd184352] | 100.5 |
| Nc1nc(F)nc2c1ncn2[C@@H]1O[C@H](COP(=O)(O)O)[C@@H](O)[C@@H]1O [ONC0004083, fludarabine phosphate] | 101.2 |
| O=C(N[C@H]1CN2CCC1CC2)c1cc2cccc(Cl)c2s1 [ONC0001314, encenicline hydrochloride] | 90.3 |
| O=C(O[C@H]1[C@H](OC(=O)c2cccnc2)[C@@H](OC(=O)c2cccnc2)[C@H](OC(=O)c2cccnc2)[C@@H](OC(=O)c2cccnc2)[C@H]1OC(=O)c1cccnc1)c1cccnc1 [ONC0003319, inositol nicotinate] | 63.29 |
| O=C(O[C@H]1C[N+]2(CCCOc3ccccc3)CCC1CC2)C(O)(c1cccs1)c1cccs1 [ONC0005111, aclidinium bromide] | 82.99 |
| CC(C)Cc1ccc(C(C)C(=O)NO)cc1 (stereo not drawn) [ONC0003493, ibuproxam] | 73.64 |
| Brc1cc2c(cc1[C@@H]1Nc3ccccc3[C@@H]3C=CC[C@@H]31)OCO2.Brc1cc2c(cc1[C@H]1Nc3ccccc3[C@H]3C=CC[C@H]31)OCO2 [ONC0004256, g15] | 86.1 |
| CC(C)(C)N1CCC(c2ccccc2)(c2ccccc2)CC1 [ONC0002755, budipine] | 128.8 |
| NC(=O)c1ccccc1O [ONC0003411, salicylamide] | 88.05 |
| C[C@@H](NCCc1ccc(O)cc1)[C@@H](O)c1ccc(O)cc1 (racemic) [ONC0000689, ritodrine hydrochloride] | 122.8 |
| COc1ccc(C(=O)CCC(=O)O)c2ccccc12 [ONC0005282, menbutone] | 82.17 |
| O=C(COc1ccc(C(=O)c2ccccc2)cc1)NC1CCN(Cc2ccccc2)CC1 [ONC0000156, adiporon] | 92.46 |
| Sc1ncnc2nc[nH]c12 [ONC0000500, mercaptopurine] | 72.86 |
| COC(F)(F)C(Cl)Cl [ONC0003659, 22dichloro11difluoroethyl methyl ether] | 57.79 |
| CC(Cc1ccccc1)NCCC(c1ccccc1)c1ccccc1 (stereo not drawn) [ONC0002952, prenylamine] | 60.44 |
| CC(C)C[C@H](NC(=O)[C@H](Cc1ccccc1)NC(=O)c1cnccn1)B(O)O [ONC0002213, bortezomib] | 116.9 |
| O=C(OCCN1CCOCC1)C1(c2ccccc2)CCCCC1 [ONC0001736, pre084] | 85.15 |
| Nc1nc(=O)n([C@@H]2O[C@H](CO)[C@@H](O)[C@@H]2F)cc1I [ONC0001084, fiacitabine] | 61.87 |

Among those listed so far, these have a thiophene ring, fused or not:

| Structure (SMILES) | % viability [%] |
| --- | --- |
| O=C(N[C@H]1CN2CCC1CC2)c1cc2cccc(Cl)c2s1 [ONC0001314, encenicline hydrochloride] | 90.3 |
| O=C(O[C@H]1C[N+]2(CCCOc3ccccc3)CCC1CC2)C(O)(c1cccs1)c1cccs1 [ONC0005111, aclidinium bromide] | 82.99 |
